Our source for the binding values is publication PMC6002401.

By UniProt entry, the sequences of proteins in these tests, tags left out.
UniProt P98177: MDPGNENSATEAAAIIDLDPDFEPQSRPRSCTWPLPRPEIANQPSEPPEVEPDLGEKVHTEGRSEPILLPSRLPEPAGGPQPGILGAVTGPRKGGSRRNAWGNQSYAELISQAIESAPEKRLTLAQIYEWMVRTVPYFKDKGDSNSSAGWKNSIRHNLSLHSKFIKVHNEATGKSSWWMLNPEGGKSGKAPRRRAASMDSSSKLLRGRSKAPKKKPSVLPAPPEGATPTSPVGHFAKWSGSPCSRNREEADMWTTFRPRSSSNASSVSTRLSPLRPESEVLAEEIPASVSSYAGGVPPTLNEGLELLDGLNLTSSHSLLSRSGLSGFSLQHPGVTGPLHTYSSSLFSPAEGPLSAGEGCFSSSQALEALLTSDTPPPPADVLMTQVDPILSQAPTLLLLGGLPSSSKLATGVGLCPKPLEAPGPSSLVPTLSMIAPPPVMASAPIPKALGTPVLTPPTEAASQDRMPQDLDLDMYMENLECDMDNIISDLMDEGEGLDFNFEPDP
UniProt Q9H4A3: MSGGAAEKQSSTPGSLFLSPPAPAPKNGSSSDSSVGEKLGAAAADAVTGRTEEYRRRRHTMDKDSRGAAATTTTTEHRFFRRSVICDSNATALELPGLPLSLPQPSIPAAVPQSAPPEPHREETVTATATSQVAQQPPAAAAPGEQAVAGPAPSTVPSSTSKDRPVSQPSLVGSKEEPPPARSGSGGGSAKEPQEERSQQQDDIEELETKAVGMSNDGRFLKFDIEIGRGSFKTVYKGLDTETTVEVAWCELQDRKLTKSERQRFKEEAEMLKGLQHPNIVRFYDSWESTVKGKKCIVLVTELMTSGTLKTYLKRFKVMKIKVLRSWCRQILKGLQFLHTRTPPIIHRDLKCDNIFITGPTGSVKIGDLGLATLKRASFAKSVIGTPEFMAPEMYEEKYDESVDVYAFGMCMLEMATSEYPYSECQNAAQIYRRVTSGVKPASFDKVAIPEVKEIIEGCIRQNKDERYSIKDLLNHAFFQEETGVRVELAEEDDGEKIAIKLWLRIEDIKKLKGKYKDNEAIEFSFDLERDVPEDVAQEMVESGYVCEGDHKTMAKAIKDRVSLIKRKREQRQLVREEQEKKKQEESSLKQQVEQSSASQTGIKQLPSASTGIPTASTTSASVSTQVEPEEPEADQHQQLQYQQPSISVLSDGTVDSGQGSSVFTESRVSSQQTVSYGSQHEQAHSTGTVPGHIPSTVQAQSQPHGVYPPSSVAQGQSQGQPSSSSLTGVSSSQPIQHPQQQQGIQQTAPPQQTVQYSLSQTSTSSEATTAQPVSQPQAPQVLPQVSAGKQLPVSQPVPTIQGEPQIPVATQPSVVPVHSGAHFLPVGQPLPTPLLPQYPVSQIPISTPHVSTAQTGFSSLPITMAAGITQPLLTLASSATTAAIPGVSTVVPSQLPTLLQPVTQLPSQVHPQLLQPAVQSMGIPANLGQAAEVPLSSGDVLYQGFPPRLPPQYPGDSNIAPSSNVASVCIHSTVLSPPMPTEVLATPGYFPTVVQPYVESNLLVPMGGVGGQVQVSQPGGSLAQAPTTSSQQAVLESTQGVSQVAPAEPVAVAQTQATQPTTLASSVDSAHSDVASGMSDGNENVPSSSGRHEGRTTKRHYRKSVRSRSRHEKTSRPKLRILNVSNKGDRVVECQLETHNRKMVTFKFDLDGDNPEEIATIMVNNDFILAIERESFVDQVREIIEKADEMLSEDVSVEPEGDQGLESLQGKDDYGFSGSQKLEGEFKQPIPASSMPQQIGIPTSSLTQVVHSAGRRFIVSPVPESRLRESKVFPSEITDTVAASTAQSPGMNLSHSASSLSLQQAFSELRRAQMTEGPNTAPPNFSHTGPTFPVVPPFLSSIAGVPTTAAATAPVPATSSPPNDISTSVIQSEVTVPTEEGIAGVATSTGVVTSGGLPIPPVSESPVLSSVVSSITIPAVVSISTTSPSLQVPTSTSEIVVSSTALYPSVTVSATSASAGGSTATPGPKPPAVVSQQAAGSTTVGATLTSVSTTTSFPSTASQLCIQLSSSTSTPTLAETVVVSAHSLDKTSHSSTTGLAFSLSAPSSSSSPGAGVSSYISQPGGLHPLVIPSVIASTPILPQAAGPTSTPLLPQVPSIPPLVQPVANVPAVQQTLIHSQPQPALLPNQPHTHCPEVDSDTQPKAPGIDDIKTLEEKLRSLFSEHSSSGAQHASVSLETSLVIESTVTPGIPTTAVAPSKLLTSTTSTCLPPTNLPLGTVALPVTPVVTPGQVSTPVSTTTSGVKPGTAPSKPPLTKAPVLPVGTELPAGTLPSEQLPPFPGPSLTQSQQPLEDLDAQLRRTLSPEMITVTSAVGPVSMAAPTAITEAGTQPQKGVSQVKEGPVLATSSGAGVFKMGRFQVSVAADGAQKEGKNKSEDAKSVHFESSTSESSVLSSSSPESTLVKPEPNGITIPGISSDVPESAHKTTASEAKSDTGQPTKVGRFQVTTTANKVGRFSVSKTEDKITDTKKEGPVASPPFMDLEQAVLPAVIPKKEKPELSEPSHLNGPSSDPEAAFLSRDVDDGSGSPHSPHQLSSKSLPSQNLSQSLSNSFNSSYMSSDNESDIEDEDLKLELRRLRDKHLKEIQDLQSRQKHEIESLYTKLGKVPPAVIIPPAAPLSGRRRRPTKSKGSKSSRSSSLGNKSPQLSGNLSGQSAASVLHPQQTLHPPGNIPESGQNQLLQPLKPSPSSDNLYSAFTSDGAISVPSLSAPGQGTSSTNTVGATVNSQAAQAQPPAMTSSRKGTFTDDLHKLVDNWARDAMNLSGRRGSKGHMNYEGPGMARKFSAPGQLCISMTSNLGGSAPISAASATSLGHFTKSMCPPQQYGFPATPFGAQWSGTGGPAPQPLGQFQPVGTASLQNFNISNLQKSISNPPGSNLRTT

These are yes or no findings as the source states them, for the method shown. Binding seen in cells or lysates may run through a third protein. Some binding calls cover weakened binding; strength is not graded here. For some assays here: Sequences can lack the tags named with a protein.

The target of one test is human FOXO4 (human) (UniProt P98177). The test is described as follows: co-IP; Halo-tagged WNK1 co-expressed with FLAG-tagged KLHL3 or FOXO4 in HEK293T cells (left panel) and C2C12 cells (right panel); precipitating antibody and buffer not stated.
The target in test [1] is T1, FLAG-tagged human KLHL3 (human) (UniProt Q9UH77).
T1 sequence: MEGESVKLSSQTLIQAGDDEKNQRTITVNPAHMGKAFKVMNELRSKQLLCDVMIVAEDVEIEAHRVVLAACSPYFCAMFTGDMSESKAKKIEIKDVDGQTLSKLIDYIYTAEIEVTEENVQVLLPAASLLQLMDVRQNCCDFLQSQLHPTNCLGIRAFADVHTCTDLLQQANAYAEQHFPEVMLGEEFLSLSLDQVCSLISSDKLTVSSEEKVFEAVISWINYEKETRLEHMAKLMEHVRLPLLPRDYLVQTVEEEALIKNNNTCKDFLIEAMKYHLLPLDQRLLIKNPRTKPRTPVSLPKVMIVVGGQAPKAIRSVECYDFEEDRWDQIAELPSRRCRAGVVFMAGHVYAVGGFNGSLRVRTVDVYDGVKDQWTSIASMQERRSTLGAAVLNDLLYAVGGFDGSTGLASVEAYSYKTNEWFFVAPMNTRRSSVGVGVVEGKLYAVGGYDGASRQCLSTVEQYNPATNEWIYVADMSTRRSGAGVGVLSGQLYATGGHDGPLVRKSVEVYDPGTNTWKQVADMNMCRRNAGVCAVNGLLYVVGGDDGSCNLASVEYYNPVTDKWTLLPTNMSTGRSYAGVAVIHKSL
Described as above.

In the case of “Halo-tagged human WNK1 (from UniProt Q9H4A3 1-2382) (enzyme)”, the values for the binding result (with human FOXO4 (human); in test [1]) were “no binding” and “binds”, respectively.
